Source: article PMC10132805
Results are given in words; binding and its absence hold for the method and conditions named. Binding seen in cells or lysates may run through a third protein. Some binding calls cover weakened binding; strength is not graded here. For part of these data: Tags and fused reporters may be left off the sequences shown.

Chains of the proteins cited; added tags and fusions are not shown. Residues count along the entry.
UniProt Q96CW1, residues 170-434: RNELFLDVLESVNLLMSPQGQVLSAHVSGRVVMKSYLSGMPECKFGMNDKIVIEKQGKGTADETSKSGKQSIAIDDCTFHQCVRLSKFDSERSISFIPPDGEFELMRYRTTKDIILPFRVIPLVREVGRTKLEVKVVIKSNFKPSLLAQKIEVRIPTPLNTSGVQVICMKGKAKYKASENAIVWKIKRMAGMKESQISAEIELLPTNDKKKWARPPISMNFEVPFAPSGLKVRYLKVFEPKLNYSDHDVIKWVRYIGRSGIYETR
UniProt P11940, residues 544-623: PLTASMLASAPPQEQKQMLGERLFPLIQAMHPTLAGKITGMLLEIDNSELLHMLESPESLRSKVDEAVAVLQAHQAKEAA
UniProt P18272: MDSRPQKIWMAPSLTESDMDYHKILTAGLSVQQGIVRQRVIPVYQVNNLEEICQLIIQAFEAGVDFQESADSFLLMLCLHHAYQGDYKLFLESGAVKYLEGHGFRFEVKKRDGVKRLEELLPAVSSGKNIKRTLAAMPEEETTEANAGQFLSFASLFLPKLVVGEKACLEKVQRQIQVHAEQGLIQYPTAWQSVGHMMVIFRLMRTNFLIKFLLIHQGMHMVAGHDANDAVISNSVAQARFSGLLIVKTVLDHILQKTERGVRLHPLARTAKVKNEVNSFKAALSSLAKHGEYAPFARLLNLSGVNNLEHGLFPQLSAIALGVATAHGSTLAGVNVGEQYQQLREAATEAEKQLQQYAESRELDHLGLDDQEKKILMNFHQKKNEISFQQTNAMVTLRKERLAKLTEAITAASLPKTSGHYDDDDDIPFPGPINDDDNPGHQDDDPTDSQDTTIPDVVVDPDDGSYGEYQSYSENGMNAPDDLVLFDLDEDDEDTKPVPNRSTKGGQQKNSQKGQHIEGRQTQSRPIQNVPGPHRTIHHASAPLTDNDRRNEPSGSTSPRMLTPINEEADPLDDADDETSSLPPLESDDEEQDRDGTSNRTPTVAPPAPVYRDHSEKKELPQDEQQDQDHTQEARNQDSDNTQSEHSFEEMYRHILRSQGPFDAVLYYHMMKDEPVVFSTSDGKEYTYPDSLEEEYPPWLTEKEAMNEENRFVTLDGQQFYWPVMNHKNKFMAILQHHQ
UniProt O55778: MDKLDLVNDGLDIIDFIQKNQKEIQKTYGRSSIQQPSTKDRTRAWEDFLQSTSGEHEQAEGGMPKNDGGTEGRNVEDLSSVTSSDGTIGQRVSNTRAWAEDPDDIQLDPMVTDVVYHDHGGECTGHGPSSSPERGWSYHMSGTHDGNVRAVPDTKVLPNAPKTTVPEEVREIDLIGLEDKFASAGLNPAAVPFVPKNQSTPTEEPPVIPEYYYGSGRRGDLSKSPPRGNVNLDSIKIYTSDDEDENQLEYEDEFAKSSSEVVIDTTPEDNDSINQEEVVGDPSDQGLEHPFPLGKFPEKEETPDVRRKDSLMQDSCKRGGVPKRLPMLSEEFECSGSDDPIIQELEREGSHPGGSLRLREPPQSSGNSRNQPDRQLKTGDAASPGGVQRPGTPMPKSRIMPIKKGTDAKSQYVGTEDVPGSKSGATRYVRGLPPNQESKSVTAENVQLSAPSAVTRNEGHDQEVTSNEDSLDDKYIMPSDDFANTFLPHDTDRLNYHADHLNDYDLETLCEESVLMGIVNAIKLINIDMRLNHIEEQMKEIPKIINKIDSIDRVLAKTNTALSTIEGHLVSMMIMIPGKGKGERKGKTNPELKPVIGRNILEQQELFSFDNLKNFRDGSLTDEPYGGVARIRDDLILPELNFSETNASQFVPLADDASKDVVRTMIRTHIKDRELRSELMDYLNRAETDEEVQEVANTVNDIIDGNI

Tests used:
Assay in all cases: pull-down; only the target purified
[1] = biological target: GST-tagged Mu homology domain of the AP-2 subunit mu (human) (UniProt Q96CW1)
[2] = biological target: T1, GST-tagged GAE domain of GGA3 (human) (UniProt Q9NZ52)
T1 sequence: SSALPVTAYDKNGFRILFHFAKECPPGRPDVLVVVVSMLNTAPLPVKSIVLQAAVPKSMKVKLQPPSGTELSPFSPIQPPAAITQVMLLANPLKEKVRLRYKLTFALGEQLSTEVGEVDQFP

[3] = biological target: GST-tagged C terminal domain of polyadenylate-binding protein 1 (human) (UniProt P11940)

Row | Substance | binding [1] | binding [2] | binding [3]
1 | nucleoprotein (NP) from Zaire ebolavirus (ZEBOV), full length, Flag-tagged (from UniProt P18272 1-739) | binds | binds | –
2 | P (HeV) wt, full length, Flag-tagged (from UniProt O55778 1-707) | – | – | binds
